Each structure is given as a SMILES string. Counter-ions that a name gives are not always drawn. Some of the results follow. Hit calls seldom repeat between salt and free forms of one compound.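 Kinases, fused to nanoluciferase, were expressed in K562 cells; luminescence was measured every 4 h from 2 to 18 h as percent of control (DMSO = 100%, positive control = 0%). A time point is decreased if signal falls significantly (2 sigma). Hits were called by the authors by a rule that is not shown; the count of time points alone does not decide it.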

Amino acid sequences for entries named in this document (tags omitted). A change or cut given only in a name is not applied to a line headed by its entry.
UniProt P07948: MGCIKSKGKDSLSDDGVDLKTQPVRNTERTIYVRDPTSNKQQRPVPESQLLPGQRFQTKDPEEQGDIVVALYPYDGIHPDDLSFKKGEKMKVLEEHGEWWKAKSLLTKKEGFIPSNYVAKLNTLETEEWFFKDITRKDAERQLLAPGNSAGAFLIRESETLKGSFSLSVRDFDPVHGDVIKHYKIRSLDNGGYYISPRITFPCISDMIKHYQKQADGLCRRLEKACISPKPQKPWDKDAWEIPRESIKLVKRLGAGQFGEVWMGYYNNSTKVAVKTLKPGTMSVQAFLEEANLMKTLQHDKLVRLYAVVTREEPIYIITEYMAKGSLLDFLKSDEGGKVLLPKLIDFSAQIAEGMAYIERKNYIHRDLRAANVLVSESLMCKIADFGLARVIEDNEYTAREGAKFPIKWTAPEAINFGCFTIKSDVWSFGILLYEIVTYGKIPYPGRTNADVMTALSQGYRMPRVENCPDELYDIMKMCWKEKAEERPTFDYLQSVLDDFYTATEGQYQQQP

The target in the assay is LYN (UniProt P07948). Nature of the assay: number of time points (of 5) at which kinase-Nluc abundance scored as decreased, DMSO-normalised (count); higher = more persistent destabilization. To be noted: K562; 2-18 h.
Consider `C=C(CCC=C(C)C)[C@H]1CC[C@]2(C)[C@@H]1[C@H](O)C[C@@H]1[C@@]3(C)CC[C@H](O[C@@H]4O[C@H](CO)[C@@H](O)[C@H](O)[C@H]4O[C@@H]4O[C@H](CO)[C@@H](O)[C@H](O)[C@H]4O)C(C)(C)[C@@H]3CC[C@]12C` [Ginsenoside Rk1] (10 µM), for which the “number of time points” value worked out at 0.

Consider `CCn1c(=O)c(-c2ccc(-c3cncs3)cc2Cl)cc2cnc(Nc3ccc(N4CCN(C)CC4)cc3)nc21` (2.5 µM), for which the “number of time points” value turned out to be 0.

In the case of `Nc1nccc(Oc2ccc(NC(=O)c3cn(COP(=O)(O)O)cc(-c4ccc(F)cc4)c3=O)cc2F)c1Cl` (10 µM), the “number of time points” value amounted to 0.

Regarding `Cc1cc(-c2cc(OC(=O)c3ccccc3)ccc2Cl)cc2nnc(Nc3ccc(OCCN4CCCC4)cc3)nc12` (0.5 µM), the “number of time points” value is 0.

Consider `OC[C@H]1O[C@@H](Oc2cc3c(O)cc(O)cc3[o+]c2-c2cc(O)c(O)c(O)c2)[C@H](O)[C@@H](O)[C@@H]1O` [Delphinidin 3-glucoside (chloride)] (10 µM), for which the “number of time points” value stood at 0.

`O=C(/C=C/c1ccc(O)c(O)c1)c1ccc(O[C@@H]2O[C@H](CO)[C@@H](O)[C@H](O)[C@H]2O)c(O)c1O` [Marein] (10 µM): the “number of time points” value stood at 0.

As to `O=C1Nc2nc(-c3c(O)cccc3OCC3CC3)cc([C@@H]3CCCNC3)c2CO1` [Bay 65-1942 (hydrochloride)] (10 µM), the “number of time points” value stood at 0.

`CC(C)CN(CC(=O)N1CCN(CC(OCc2ccc3ccccc3c2)c2ccc(Cl)cc2Cl)CC1)CC(C)C` (centres undefined) [LYN-1604 (dihydrochloride)] (2.5 µM): the “number of time points” value is 0.

For the compound `CCc1cc(O)c(F)cc1-c1ccc2c(-c3nc4c([nH]3)CN(C3CCN(C)CC3)CC4)n[nH]c2c1` [JAK-IN-5 (hydrochloride)] (2 µM), the “number of time points” value was determined as 0.

Take `Cc1ccc(Nc2cc(-c3cccc(N4C(=O)c5ccccc5C4=O)c3)ncn2)cc1NS(C)(=O)=O` (10 µM): the “number of time points” value was 0.

With `C=C1C(=O)O[C@@H]2C[C@@]3(C)CCC[C@H](C)C3=C[C@H]12` [Alantolactone] (10 µM), the “number of time points” value is 0.

On to `C=C(C)C(=O)Nc1cccc(-c2ncnc3[nH]cc(C(=O)OCC)c23)c1` (10 µM), for which the “number of time points” value turned out to be 0.

Regarding `CNc1nc(Nc2cnn(C3CCN(C4COC4)CC3F)c2Cl)ncc1C(F)(F)F` (centres undefined) (10 µM), the “number of time points” value came out at 0.

As for `Cc1cc(Nc2cc(Cl)nc(Oc3ccc([N+](=O)[O-])cc3)n2)n[nH]1` [Autophinib] (2.5 µM), the “number of time points” value worked out at 0.

As to `CC(C)=CC[C@H](O)C1=CC(=O)c2c(O)ccc(O)c2C1=O` [(-)-Alkannin] (2.5 µM), the “number of time points” value stood at 0.

In the case of `CNCc1ccccc1-c1csc([C@@H](C)Nc2nc(C)nc3cc(OC)c(OC)cc23)c1` (2.5 µM), the “number of time points” value is 0.

Take `COc1ncc(-c2nc(N3CCOCC3)nc3c(CN4CCC(C(C)(C)O)CC4)cc(F)cc23)cc1NS(C)(=O)=O` [Linperlisib] (10 µM): the “number of time points” value stood at 0.

For `O=C(Nc1ccc(F)cc1F)[C@H](NC(=S)Nc1cc(C(F)(F)F)cc(C(F)(F)F)c1)c1ccccc1` (2.5 µM), the “number of time points” value was 0.

As to `O=C1NC(=O)C(=Cc2ccc(-c3ccc(F)cc3)o2)S1` (stereo in doubt) (10 µM), the “number of time points” value stood at 0.

With `CCOc1cc(C(=O)N2CCC(N3CCN(C)CC3)CC2)ccc1Nc1ncc2c(n1)N(C1CCCC1)c1ccccc1C(=O)N2C` (10 µM), the “number of time points” value came to 0.

`OC(COc1ccc(C(F)(F)F)cc1)CN(Cc1ccccc1)Cc1ccccc1` (centres undefined) (2.5 µM): the “number of time points” value came to 0.

For `C[C@@H]1C(=O)O[C@H](C)[C@H]1C[C@@H](O)[C@](C)(O)[C@H]1CC[C@@]2(O)C3=CC(=O)[C@@H]4C[C@@H](O)[C@@H](O)C[C@]4(C)[C@H]3CC[C@]12C` [Cyasterone] (10 µM), the “number of time points” value was 0.

With `Cc1c(CN2CCN(C(=O)[C@H](C)O)CC2)sc2c(N3CCOCC3)nc(-c3cnc(N)nc3)nc12` [Apitolisib] (10 µM), the “number of time points” value came to 1.

As to `CC(C)(C)NC(=O)c1cncn1C1CCN(c2ccc(-c3nnc(C(F)(F)F)o3)cn2)CC1` (10 µM), the “number of time points” value was 0.

For `NCc1ccc(Nc2ncc(F)c(Nc3ccccc3)n2)cc1` (10 µM), the “number of time points” value was found to be 0.

In the case of `COC1(c2sc3c(N4CCOCC4)nc(-c4cnc(N)nc4)nc3c2C)COC1` (2.5 µM), the “number of time points” value amounted to 0.

For `COc1cc2c[n+](C)c3c4cc5c(cc4ccc3c2cc1OC)OCO5` [Nitidine (chloride)] (2 µM), the “number of time points” value is 0.

Regarding `N#Cc1ccc2ncnc(NC3CCC(N4CCOCC4)CC3)c2c1` (centres undefined) (10 µM), the “number of time points” value amounted to 0.

Regarding `COc1ccc2c(c1O)OC(C)(C)c1c-2ccc2c1C(=O)N(c1ccc(C(=O)c3ccccc3)cc1)C2=O` [Ampkinone] (10 µM), the “number of time points” value is 0.

For `CC1=C2C(=O)O[C@@H](c3ccoc3)[C@]2(C)CCC1` [Fraxinellone] (10 µM), the “number of time points” value was found to be 0.

Consider `CS(=O)(=O)c1ccc(-c2cnc(N)c(C(=O)Nc3ccccc3)n2)cc1` (10 µM), for which the “number of time points” value was 0.

For the compound `O=C(NC(NC(=S)Nc1ccc(F)c([N+](=O)[O-])c1)C(Cl)(Cl)Cl)C(c1ccccc1)c1ccccc1` (centres undefined) (10 µM), the “number of time points” value came to 0.

For `COc1cc(C(N)=O)nc(-c2cccc(C#C[C@]3(O)CCN(C)C3=O)c2)c1` (10 µM), the “number of time points” value is 0.

Turning to `O=C(Nc1cc(Oc2cc(F)c(NC(=O)C3(C(=O)Nc4ccc(F)cc4)CC3)cc2F)ccn1)C1CC1` [Altiratinib] (10 µM), the “number of time points” value turned out to be 0.

For `COc1ccc(Cl)cc1NC(=O)Nc1cc(C)nc2ccccc12` (2.5 µM), the “number of time points” value came to 0.

As for `COc1ccc(CC(=O)Nc2nc3c(s2)CCc2ccccc2-3)cc1OC` (10 µM), the “number of time points” value came out at 0.

For the compound `N[C@H](Cc1c[nH]c2ccccc12)C(=O)N/N=C/c1ccc2nccnc2c1` [Rhosin (hydrochloride)] (10 µM), the “number of time points” value is 0.

Regarding `CC(C)(C)c1ccc(S(=O)(=O)Nc2ccc(-n3ccnc3)cc2)cc1` (10 µM), the “number of time points” value turned out to be 0.

Take `Cc1ccc(-c2c(C(=O)CF)n(CCCO)c3ncnc(N)c23)cc1` (10 µM): the “number of time points” value turned out to be 0.

The record behind these values is the supplement of paper PMC12823440, “Inhibitors supercharge kinase turnover through native proteolytic circuits” (Nature, 2025).
